“And” between values parts separate entries of the source, which are not always exact repeats. Equal entries are not always repeated. Structures can show the parent of a compound that is named as a salt. Where a SMILES comes first, the peptide text is derived from it. [ ]: non-standard residue; d: D form. Hyp = O=C(O)[C@@H]1C[C@@H](O)CN1

From PMC10443802 (JCI Insight, 2023) come the findings set out here.

The data set deals with OATP1B2. Description: Untargeted metabolomics of plasma and DRG, WT vs OATP1B2-deficient mice. In kind it is in vivo, mouse.
Where [1] appears, read: untargeted metabolomics, WT vs OATP1B2-deficient mice, supplement sheet "Figure 5B" (volcano plot).
Where [2] appears, read: untargeted metabolomics, sheet "Figure 5C", WT vs OATP1B2-deficient mice.
[3] abbreviates: untargeted metabolomics, WT vs OATP1B2-deficient mice, supplement sheet "Figure 5B".
[4] abbreviates: Figure 5B source data (volcano plot), untargeted metabolomics, WT vs OATP1B2-deficient mice, log2 fold change of metabolite level.

Consider `CC(C)C(=O)O[C@H](CC(=O)[O-])C[N+](C)(C)C` [isobutyrylcarnitine (C4)], for which the Log2FoldChange is on record as 0.4854 under setting [1] and 0.4647 under setting [2]. Under setting [3], `CC(C)C(=O)NCC(=O)O` [isobutyrylglycine] yielded a Log2FoldChange of 0.02857.

Under setting [1], `CC(C)CCC(=O)OC(CC(=O)[O-])C[N+](C)(C)C` (stereo not shown) [isocaproylcarnitine] registered a Log2FoldChange of 0.516. Still for that read-out and setting: the figure for `CC(C)CCC(=O)NCC(=O)O` [isocaproylglycine] is 0.6508.

Take `O=C(O)CC(C(=O)O)C(O)C(=O)O` (stereo not shown) [isocitrate]: the Log2FoldChange under setting [4] is given as -0.1844. Under setting [1], `O=C1CC(C(=O)O)C(C(=O)O)O1` (stereo not shown) [isocitric lactone] returned a Log2FoldChange of 0.2869. Compound `C[C@H](CCC(=O)O)[C@H]1CC[C@H]2[C@@H]3C[C@H](O)[C@@H]4C[C@@H](O)CC[C@]4(C)[C@H]3CC[C@]12C` [isohyodeoxycholate] had a Log2FoldChange under setting [1] of 1.299.

Compound `CC[C@H](C)[C@H](N)C(=O)O` [isoleucine] came in with a Log2FoldChange under setting [2] of 0.09761.

As to `CC[C@H](C)[C@H](N)C(=O)NCC(=O)O` [isoleucylglycine] (H-Ile-Gly-OH), the Log2FoldChange under setting [2] is on record as 0.251. `CC[C@H](C)[C@H](N)C(=O)N1C[C@H](O)C[C@H]1C(=O)O` [isoleucylhydroxyproline*] (H-Ile-[Hyp]-OH): the Log2FoldChange under setting [3] came out at 0.1375. Take `CC(C)CC(=O)O[C@H](CC(=O)[O-])C[N+](C)(C)C` [isovalerylcarnitine (C5)]: the Log2FoldChange was found to be 0.4854 under setting [1] and 0.4957 under setting [2]. Consider `CC(C)CC(=O)NCC(=O)O` [isovalerylglycine], for which the Log2FoldChange under setting [1] turned out to be 0.5656. Same read-out and setting: the same measure for `O=C(O)c1cc(=O)c2ccccc2[nH]1` [kynurenate]: 0.3219. On to `Nc1ccccc1C(=O)CC(N)C(=O)O` (stereo not shown) [kynurenine], for which the Log2FoldChange runs as follows: under setting [1], 0.3334; under setting [2], 0.05658. For `CCCCCCCCCCCC(=O)O` [laurate (12:0)], the Log2FoldChange was -0.1203 under setting [3] and 0.09761 under setting [2]. Consider `CCCCCCCCCCCC(=O)O[C@H](CC(=O)[O-])C[N+](C)(C)C` [laurylcarnitine (C12)], for which the Log2FoldChange under setting [3] is listed as 0.2016. Consider `CC(C)C[C@H](N)C(=O)O` [leucine], for which the Log2FoldChange is, setting by setting: under setting [3], -0.0145; under setting [2], 0.09761. With `CC(C)C[C@H](N)C(=O)N1C[C@H](O)C[C@H]1C(=O)O` [leucylhydroxyproline*] (H-Leu-[Hyp]-OH), the Log2FoldChange under setting [3] was determined as 0.1763. With `CCCCCCCCCCCCC/C=C/[C@@H](O)[C@H](COP(=O)([O-])OCC[N+](C)(C)C)NC(=O)CCCCCCCCCCCCCCCCCCCCCCC` [lignoceroyl sphingomyelin (d18:1/24:0)], the Log2FoldChange runs as follows: under setting [3], 0; under setting [2], -0.7612. `CCCCC/C=C\C/C=C\CCCCCCCC(N)=O` [linoleamide (18:2n6)] registered a Log2FoldChange under setting [1] of 0.4436. For the compound `CCCCC/C=C\C/C=C\CCCCCCCC(=O)O` [linoleate (18:2n6)], the Log2FoldChange under setting [2] amounted to 0.3561.

With `CCCCC/C=C\C/C=C\CCCCCCCC(=O)NCCO` [linoleoyl ethanolamide], the Log2FoldChange is -0.3585 under setting [4] and 0.4957 under setting [2].

For `CCCCC/C=C\C/C=C\CCCCCCCC(=O)O[C@H](CC(=O)[O-])C[N+](C)(C)C` [linoleoylcarnitine (C18:2)*], the Log2FoldChange is, setting by setting: under setting [1], 0.696; under setting [2], 0.3785. Turning to `NCCCC[C@H](N)C(=O)O` [lysine], the Log2FoldChange (mouse, in vivo) is -0.1203 and 0.05658. Regarding `CC(C)C[C@H](NC(=O)[C@@H](N)CCCCN)C(=O)O` [lysylleucine] (H-Lys-Leu-OH), under setting [2], the Log2FoldChange is 0.3219. `O=C(O)[C@@H](O)[C@@H](O)[C@H](O)CO` [lyxonate] returned a Log2FoldChange under setting [2] of -0.1844. `O=C(O)CC(O)C(=O)O` (stereo not shown) [malate]: the Log2FoldChange reads like this: under setting [1], 0.2388; under setting [2], 0.05658.

In the case of `Cc1occc(=O)c1OS(=O)(=O)O` [maltol sulfate], the Log2FoldChange under setting [3] is reported as -0.0145.

In the case of `OC[C@H]1OC(O)[C@@H](O)[C@@H](O)[C@@H]1O` (stereo partly shown) [mannose], the Log2FoldChange reads like this: under setting [3], -0.0145; under setting [2], -0.1844.

In the case of `CCCCCCCCCCCCCCCCC(N)=O` [margaramide (17:0)*], under setting [1], the Log2FoldChange is on record as 0.5361.

As for `CCCCCCCCCCCCCCCCC(=O)O` [margarate (17:0)], the Log2FoldChange under setting [3] was -0.1203. In the case of `CCCCCCCCCCCCCCCCC(=O)OC(CC(=O)[O-])C[N+](C)(C)C` (stereo not shown) [margaroylcarnitine (C17)*], the Log2FoldChange by setting is: under setting [1], 0.669; under setting [2], -0.1361. As to `CCCCCCCC/C=C\C/C=C\C/C=C\CCCC(=O)O` [mead acid (20:3n9)], under setting [3], the Log2FoldChange was -0.08927. With `CS(=O)(=O)CC[C@H](N)C(=O)O` [methionine sulfone], the Log2FoldChange runs as follows: under setting [3], 0; under setting [2], -0.1203. As to `C[S+]([O-])CC[C@H](N)C(=O)O` (stereo partly shown) [methionine sulfoxide], the Log2FoldChange is listed as 0.275 under setting [1] and 0.08406 under setting [2]. As for `COC(=O)Cc1c[nH]c2ccccc12` [methyl indole-3-acetate], under setting [4], the Log2FoldChange is -0.4739. In turn, `COC(=O)c1ccc(OS(=O)(=O)O)c(OC)c1` [methyl vanillate sulfate] returned a Log2FoldChange under setting [1] of 0.3334. `CC(C(=O)O)C(=O)O` [methylmalonate (MMA)]: the Log2FoldChange under setting [3] came out at 0.08406 and the Log2FoldChange under setting [2] is recorded as -0.074. On to `COP(=O)(O)O` [methylphosphate], for which the Log2FoldChange by setting is: under setting [1], 0.3448; under setting [2], 0.1763. The corresponding values for `CC(CC(=O)O)C(=O)O` (stereo not shown) [methylsuccinate] are 0.2388 and 0.4436. Regarding `CC(O)(CCO)CC(=O)O` (stereo not shown) [mevalonate], the Log2FoldChange under setting [1] is on record as 0.3103. Regarding `CCCCCCCCCCCCCC(=O)O` [myristate (14:0)], the Log2FoldChange is reported as -0.2515 under setting [4] and 0.05658 under setting [2]. The compound `CCCC/C=C/CCCCCCCC(=O)O` [myristelaidate (tr 14:1n5)] displayed a Log2FoldChange under setting [2] of 0.1763. `CCCC/C=C\CCCCCCCC(=O)O` [myristoleate (14:1n5)] displayed a Log2FoldChange under setting [3] of -0.1681. `CCCC/C=C\CCCCCCCC(=O)O[C@H](CC(=O)[O-])C[N+](C)(C)C` [myristoleoylcarnitine (C14:1)*] had a Log2FoldChange under setting [1] of 0.433.

Under setting [1], `CCCCCCCCCCCCCC(=O)O[C@H](CC(=O)[O-])C[N+](C)(C)C` [myristoylcarnitine (C14)] returned a Log2FoldChange of 0.4751. On to `CCCCCCCC/C=C\CCCCCCCCCCCCCC(=O)OC(CC(=O)[O-])C[N+](C)(C)C` (stereo not shown) [nervonoylcarnitine (C24:1)*], for which, under setting [2], the Log2FoldChange is recorded as -0.7612.

In turn, `NC(=O)c1ccc[n+]([C@@H]2O[C@H](COP(=O)([O-])OP(=O)(O)OC[C@H]3O[C@@H](n4cnc5c(N)ncnc54)[C@H](O)[C@@H]3O)[C@@H](O)[C@H]2O)c1` [nicotinamide adenine dinucleotide (NAD+)] showed a Log2FoldChange under setting [2] of 0.275. `NC(=O)c1ccc[n+]([C@@H]2O[C@H](CO)[C@@H](O)[C@H]2O)c1` [nicotinamide riboside]: under setting [1], the Log2FoldChange worked out at 0.3103. `NC(=O)c1cccnc1` [nicotinamide] gave a Log2FoldChange under setting [3] of -0.0145.
